{
  "source": "PubChem BioAssay AID504467",
  "about": "(National Center for Advancing Translational Sciences (NCATS), 2011)",
  "note": "The campaign covered roughly 330,000 compounds. About 7,700 (2.3%) were called active. Inconclusive results, whose numbers are uncertain, are shown with a selection of clear calls. The call rests on the fitted dose curve; in most records, active means well fitted inhibition curve with a large enough effect; inconclusive means small, poorly fitted or top-dose-only effect, or effect the other way; inactive means flat fitted curve, though single readings scatter. Where the call is inconclusive, the potency comes from a doubtful curve fit. Potency means the concentration at half of the fitted maximal effect.",
  "data": [
    {"experiment": "qHTS screen for small molecules that inhibit ELG1-dependent DNA repair in human embryonic kidney (HEK293T) cells expressing luciferase-tagged ELG1; further: nearly all actives have a fitted effect of over 55% in size", "conditions": "HEK293T ELG1-luciferase reporter, luminescence, 16 h, DNA damage induced by 5-fluorouridine; series mostly up to 46.1 µM", "outline": "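DMSO vehicle served as the neutral condition. Each well held 2,000 cells given 5-fluorouridine plus compound; after 16 hr at 37 °C/5% CO2, ONE-Glo was added and luciferase measured 30 min later.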", "values": [
      {"compound": "Cc1oc2c(Cl)c(Cl)c(O)c(CN(C)C)c2c1C(=O)c1ccc(Cl)cc1", "Potency": "inconclusive: 16.4 µM [inhibitor, partial curve]"},
      {"compound": "Cc1cccc(NC(=O)COC(=O)c2ccc(S(=O)(=O)N3CCCCCC3)cc2)c1", "Potency": "inactive"},
      {"compound": "CCC(C)[C@H](NC(=O)c1cc2cc(Cl)ccc2n1C)C(=O)N1CCC[C@H]1C(=O)O", "note": "(some centres undefined)", "Potency": "inactive"},
      {"compound": "CSc1ncccc1C(=O)Nc1nc2ccc(S(C)(=O)=O)cc2s1", "Potency": "inconclusive: 20.6 µM [activator, single point]"},
      {"compound": "CC1(C(=O)N2CCN(Cc3ccccc3Cl)CC2)CC1(Cl)Cl", "note": "(centres undefined)", "Potency": "inconclusive: 35.5 µM [activator, single point]"},
      {"compound": "COc1cc(/C=C2/C(=N)N3N=C(CC(=O)N4CCOCC4)SC3=NC2=O)ccc1OCc1ccccc1F", "Potency": "inconclusive: 29.1 µM [activator, single point]"},
      {"compound": "Cc1cnc(NC(=O)CSc2nnc(-c3ccc(Cl)cc3Cl)n2N)s1", "Potency": "inconclusive: 1.16 µM [activator, single point]"},
      {"compound": "COC(=O)COc1ccc(C(C2C(=O)CC(C)(C)CC2=O)C2C(=O)CC(C)(C)CC2=O)cc1", "Potency": "inactive"},
      {"compound": "COc1ccc(C(=O)c2sc3nc(-c4ccc(OC)cc4)ccc3c2N)cc1", "Potency": "inconclusive: 20.6 µM [activator, partial curve]"},
      {"compound": "COc1ccc2nc(NC(C)=O)sc2c1", "Potency": "inconclusive: 7.31 µM [activator, partial curve]"},
      {"compound": "COc1cc(NC(=O)c2csc(N)n2)cc(C(=O)Nc2cccc(C(F)(F)F)c2)c1", "Potency": "active: 23.1 µM"},
      {"compound": "CC(C)(C)OC(=O)N1CCN(CCNC(=O)c2ccccc2)CC1", "Potency": "inconclusive: 29.1 µM [activator, partial curve, poor fit]"},
      {"compound": "Cc1ccc(S(=O)(=O)NC(=O)NN2CC3CCCC3C2)cc1", "note": "(centres undefined)", "Potency": "inactive"},
      {"compound": "CCOc1ccc(NC(=O)Nc2ccc(Br)cn2)cc1", "Potency": "inconclusive: 14.6 µM [activator, partial curve]"},
      {"compound": "CCOc1ccc(S(=O)(=O)NCC2CCCO2)cc1NC(=O)c1ccccc1F", "note": "(centres undefined)", "Potency": "inactive"},
      {"compound": "Cc1cc(NC(=O)CSc2nnc(-c3ccc(O)cc3)o2)no1", "Potency": "inconclusive: 14.6 µM [activator, partial curve, poor fit]"},
      {"compound": "COc1ccc(/C=C/C(=O)NC(=S)Nc2ccc(Br)cn2)cc1", "Potency": "inconclusive: 14.6 µM [activator, single point]"},
      {"compound": "Oc1cc(Br)ccc1C=Nc1ccc(N2CCCCC2)cc1", "Potency": "inconclusive: 16.4 µM [inhibitor, single point]"},
      {"compound": "Cn1c(=O)n(C)c2cc(C(=O)Nc3ccc(Br)cc3)ccc21", "Potency": "inconclusive: 20.6 µM [activator, partial curve]"},
      {"compound": "Cc1nc2ccc(NC(=O)CSc3ccccc3)cc2s1", "Potency": "inconclusive: 18.3 µM [activator, single point]"},
      {"compound": "CCOc1ccc2[nH]cc(S(=O)(=O)c3ccc(Cl)cc3)c(=O)c2c1", "Potency": "inconclusive: 23.1 µM [inhibitor, partial curve, poor fit]"},
      {"compound": "O=c1c2cc(Cl)ccc2nc(-c2ccccc2Cl)n1O", "Potency": "inactive"},
      {"compound": "CCCN(C(=O)c1ccc(N2CCCC2=O)cc1)C1CCS(=O)(=O)C1", "note": "(centres undefined)", "Potency": "inconclusive: 8.2 µM [activator, partial curve]"},
      {"compound": "O=C(Oc1ccc(/C=N/NC(=O)c2ccccc2O)cc1)c1ccccc1", "Potency": "inconclusive: 23.1 µM [activator, single point]"},
      {"compound": "CCOC(=O)c1c(NC(=O)CN(C)C)sc(C(=O)N(CC)CC)c1C", "Potency": "inactive"},
      {"compound": "Cc1cc(C)nc(N/N=C/c2ccco2)n1", "Potency": "inconclusive: 25.9 µM [activator, single point]"},
      {"compound": "COc1cc(/C=N/N2CCOCC2)ccc1OCc1ccc(Cl)cc1", "Potency": "inconclusive: 11.6 µM [activator, partial curve]"},
      {"compound": "COc1cccc(NC(=O)c2ccc(S(=O)(=O)NCc3cccnc3)cc2)c1", "Potency": "inconclusive: 29.1 µM [inhibitor, partial curve, poor fit]"},
      {"compound": "CCCn1c(CN2CCN(C(=O)OCC)CC2)nc2cc(NC(=O)CC)ccc21", "Potency": "inconclusive: 9.2 µM [inhibitor, partial curve]"},
      {"compound": "O=c1[nH]c2ccccc2n1CCC1CCCCC1", "Potency": "inconclusive: 23.1 µM [activator, single point]"},
      {"compound": "CCCNC(=O)c1cn(CC)c2cc(N3CCN(C(=O)c4ccco4)CC3)c(F)cc2c1=O", "Potency": "active: 13 µM"},
      {"compound": "CCCOc1cccc(C(=O)Nc2cc(NC(=O)c3ccco3)ccc2OC)c1", "Potency": "inconclusive: 16.4 µM [inhibitor, single point]"},
      {"compound": "O=C(c1cccnc1)N1c2ccccc2Sc2ccccc21", "Potency": "inconclusive: 20.6 µM [inhibitor, single point]"},
      {"compound": "CCCOc1ccc(-c2c(C(=O)N/N=C/c3ccc(OC)cc3)nnn2-c2nonc2N)cc1", "Potency": "inconclusive: 25.9 µM [inhibitor, partial curve, poor fit]"},
      {"compound": "Cc1cc(C2N=C(N)Nc3nc4ccccc4n32)c(C)n1-c1ccccc1Cl", "note": "(centres undefined)", "Potency": "inactive"},
      {"compound": "Cc1cccc(NC(=O)N(Cc2cc3cc(C)ccc3[nH]c2=O)CC2COCCO2)c1", "note": "(centres undefined)", "Potency": "active: 11.6 µM"},
      {"compound": "C=CCC[C@@H](Cc1ccc(F)cc1)C(=O)OC[C@H](C)NC(=O)[C@@H](CC=C)CC(=O)N[C@@H](CO)Cc1ccccc1", "Potency": "inconclusive: 32.6 µM [inhibitor, partial curve, poor fit]"},
      {"compound": "O=C1CCCN1c1ccc(S(=O)(=O)N2CCC(c3ccccc3)CC2)cc1", "Potency": "inconclusive: 2.06 µM [inhibitor, partial curve]"},
      {"compound": "CC(OC(=O)c1cccc(NS(C)(=O)=O)c1)C(=O)Nc1ccc2c(c1)OCO2", "note": "(centres undefined)", "Potency": "inconclusive: 16.4 µM [inhibitor, partial curve, poor fit]"},
      {"compound": "COc1ccc(-c2cc(C(F)(F)F)nc(SCCC(=O)N3CCOCC3)n2)cc1", "Potency": "inconclusive: 1.84 µM [inhibitor, full curve, poor fit]"},
      {"compound": "Cc1ccc(NC(=O)C2C(C(=O)O)C3C=CC2C32CC2)cc1", "note": "(centres undefined)", "Potency": "inconclusive: 29.1 µM [activator, single point]"},
      {"compound": "Cc1ccc(-n2c(O)c(C=NC3CCS(=O)(=O)C3)c3ccccc3c2=O)c(C)c1", "note": "(centres undefined)", "Potency": "inactive"},
      {"compound": "CCOC(=O)c1sc(NC(=O)c2cc(-c3ccccc3C)nc3ccccc23)c(C#N)c1C", "Potency": "inconclusive: 2.31 µM [inhibitor, full curve]"},
      {"compound": "O=C(Cc1ccc(-n2cccc2)cc1)N1CCc2ccccc21", "Potency": "inconclusive: 18.4 µM [activator, single point]"},
      {"compound": "CCOC(=O)c1ccc2c(c1)NCc1cccc(OC)c1O2", "Potency": "inconclusive: 8.2 µM [activator, partial curve]"},
      {"compound": "CCN(CC1CCCN(CCc2cccc(OC)c2)C1)C(=O)c1ccoc1C", "note": "(centres undefined)", "Potency": "inactive"},
      {"compound": "C/C(CC(=O)Nc1cc(C)ccn1)=N\\NC(=O)C(=O)Nc1cccc(C)c1", "Potency": "inconclusive: 16.4 µM [activator, single point]"},
      {"compound": "O=C(NCc1ccc2c(c1)OCO2)Oc1ccccc1", "Potency": "inconclusive: 20.6 µM [inhibitor, partial curve, poor fit]"},
      {"compound": "CCOC(=O)c1cc(C#N)c(N2CCCNCC2)nc1C(F)(F)F", "Potency": "inactive"},
      {"compound": "CCOc1ccccc1C(=O)N1CCN(C(c2ccccc2)c2ccccc2)CC1", "Potency": "inactive"},
      {"compound": "CCCCc1cc(=O)oc2cc(OCC(=O)N3CCOCC3)ccc12", "Potency": "inactive"},
      {"compound": "Cc1nn2c(N)c(C#N)cnc2c1-c1ccccc1", "Potency": "inconclusive: 16.4 µM [activator, partial curve]"},
      {"compound": "Clc1ccccc1Cn1c(/C=C/c2ccco2)nc2ccccc21", "Potency": "inactive"},
      {"compound": "O=C(Nc1ccccc1)C1=C(c2ccccc2)S(=O)(=O)CCS1(=O)=O", "Potency": "inconclusive: 29.1 µM [inhibitor, single point]"},
      {"compound": "COc1ccc(CCNS(=O)(=O)c2ccc3c(c2)CC(C)N3C(C)=O)cc1OC", "note": "(centres undefined)", "Potency": "inconclusive: 29.1 µM [inhibitor, single point]"},
      {"compound": "CC(=O)Nc1ccc(C(=O)Nc2ccc(S(=O)(=O)N3CCCCC3)cc2)cc1", "Potency": "inactive"},
      {"compound": "CCCc1sc(N2CCCC(C(N)=O)C2)nc1-c1ccccc1", "note": "(centres undefined)", "Potency": "inactive"},
      {"compound": "Cc1cc(C)c(CN2CCC(N3CCC(C(=O)NCC4CCCO4)CC3)CC2)cc1C", "note": "(centres undefined)", "Potency": "inactive"},
      {"compound": "Cc1noc(C)c1C(=O)NC1=NCCS1", "Potency": "inconclusive: 16.4 µM [activator, single point]"},
      {"compound": "CC(=O)c1cccc(NC(=O)Nc2csc3c2CCCC3)c1", "Potency": "inactive"},
      {"compound": "O=[N+]([O-])c1ccc(NC(=S)NCCc2ccc(Cl)cc2)cc1", "Potency": "inactive"},
      {"compound": "CCOc1ccc(NC(=O)CCNC(=O)c2ccc(Br)cc2)cc1", "Potency": "inconclusive: 16.4 µM [activator, partial curve, poor fit]"},
      {"compound": "COc1cc(/C=C2\\SC(=O)NC2=O)ccc1Oc1ccc([N+](=O)[O-])cc1[N+](=O)[O-]", "Potency": "inconclusive: 29.1 µM [activator, single point]"},
      {"compound": "Cc1nc(N2CCC(C)CC2)c2oc3ccccc3c2n1", "Potency": "active: 20.6 µM"},
      {"compound": "COc1cc(C(=O)Nc2ccc(NC(=O)c3ccccc3)nc2)cc(OC)c1OC", "Potency": "inconclusive: 29.1 µM [inhibitor, single point]"},
      {"compound": "COc1ccc(OC)c2nc(-c3ccc4c(c3)OCO4)ccc12", "Potency": "inconclusive: 4.61 µM [activator, partial curve]"},
      {"compound": "CC(C)OC(=O)CC(=O)CSc1nc2c(c(-c3cccs3)c1C#N)CCC2", "Potency": "inconclusive: 13 µM [inhibitor, partial curve]"},
      {"compound": "CC1(C)c2ssc(=S)c2-c2ccccc2N1C(=O)c1ccco1", "Potency": "inconclusive: 18.4 µM [inhibitor, single point]"},
      {"compound": "Cc1cc(C(=O)N/N=C/c2ccccc2Br)no1", "Potency": "inconclusive: 16.4 µM [activator, single point]"}
    ]}
  ]
}
